Data reported in article PMC9048924.

Target: Xanthomonas outer protein S (XopS) fused to the GAL4 DNA-binding domain (Xanthomonas campestris pv. vesicatoria (strain 85-10))
Experiment: two-hybrid; direct assay: XopS fused to GAL4 DNA-BD, WRKY proteins fused to GAL4 AD, yeast strain Y190; growth on -LTH (HIS3 reporter) and LacZ filter assay

B1: Arabidopsis thaliana WRKY40 fused to the GAL4 activation domain (protein, UniProt Q9SAH7 1-302)
chain: MDQYSSSLVDTSLDLTIGVTRMRVEEDPPTSALVEELNRVSAENKKLSEMLTLMCDNYNVLRKQLMEYVNKSNITERDQISPPKKRKSPAREDAFSCAVIGGVSESSSTDQDEYLCKKQREETVVKEKVSRVYYKTEASDTTLVVKDGYQWRKYGQKVTRDNPSPRAYFKCACAPSCSVKKKVQRSVEDQSVLVATYEGEHNHPMPSQIDSNNGLNRHISHGGSASTPVAANRRSSLTVPVTTVDMIESKKVTSPTSRIDFPQVQKLLVEQMASSLTKDPNFTAALAAAVTGKLYQQNHTEK
For B1, the binding was “binds”.

No constants are given. Whether binding was seen depends on the method and setting. A result given as binding can be weak or reduced; the word gives no strength. Tags and fused reporters may be left off the sequences shown.
